From the supplement of paper PMC10849652
The list shows a part of the results.

Protein sequences, listed by entry. Tags and fused reporters are not part of them. Lines headed by an entry give the natural chain unless they say otherwise; changes in a name come on top.
UniProt Q96B23: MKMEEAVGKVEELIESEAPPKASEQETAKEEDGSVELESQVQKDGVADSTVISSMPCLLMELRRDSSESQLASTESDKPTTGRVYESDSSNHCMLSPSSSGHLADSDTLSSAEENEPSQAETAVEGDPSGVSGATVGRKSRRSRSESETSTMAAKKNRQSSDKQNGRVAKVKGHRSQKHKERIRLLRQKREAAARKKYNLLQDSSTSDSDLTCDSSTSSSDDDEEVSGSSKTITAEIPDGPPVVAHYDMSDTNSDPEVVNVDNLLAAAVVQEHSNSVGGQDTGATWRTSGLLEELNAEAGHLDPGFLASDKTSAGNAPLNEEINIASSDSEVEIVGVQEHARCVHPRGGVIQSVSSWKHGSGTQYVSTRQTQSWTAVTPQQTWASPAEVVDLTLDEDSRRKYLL
UniProt Q6UWU4: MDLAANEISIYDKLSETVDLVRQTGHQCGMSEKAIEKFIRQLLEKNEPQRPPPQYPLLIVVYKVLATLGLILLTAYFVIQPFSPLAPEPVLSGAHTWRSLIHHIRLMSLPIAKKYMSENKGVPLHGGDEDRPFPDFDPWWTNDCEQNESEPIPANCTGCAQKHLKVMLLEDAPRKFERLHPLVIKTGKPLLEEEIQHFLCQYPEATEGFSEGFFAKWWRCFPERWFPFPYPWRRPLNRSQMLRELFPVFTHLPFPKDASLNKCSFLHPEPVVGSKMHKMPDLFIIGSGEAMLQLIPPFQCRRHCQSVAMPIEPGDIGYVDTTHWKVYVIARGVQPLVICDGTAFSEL
UniProt A6NDU8: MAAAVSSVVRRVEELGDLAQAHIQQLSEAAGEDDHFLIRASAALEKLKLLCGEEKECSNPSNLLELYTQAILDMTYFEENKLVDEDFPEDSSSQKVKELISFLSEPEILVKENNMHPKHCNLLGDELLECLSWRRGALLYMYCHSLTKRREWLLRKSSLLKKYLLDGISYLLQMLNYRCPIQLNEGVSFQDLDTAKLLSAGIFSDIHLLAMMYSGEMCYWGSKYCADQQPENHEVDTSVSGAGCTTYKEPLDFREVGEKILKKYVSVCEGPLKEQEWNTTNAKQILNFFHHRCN
UniProt O14981: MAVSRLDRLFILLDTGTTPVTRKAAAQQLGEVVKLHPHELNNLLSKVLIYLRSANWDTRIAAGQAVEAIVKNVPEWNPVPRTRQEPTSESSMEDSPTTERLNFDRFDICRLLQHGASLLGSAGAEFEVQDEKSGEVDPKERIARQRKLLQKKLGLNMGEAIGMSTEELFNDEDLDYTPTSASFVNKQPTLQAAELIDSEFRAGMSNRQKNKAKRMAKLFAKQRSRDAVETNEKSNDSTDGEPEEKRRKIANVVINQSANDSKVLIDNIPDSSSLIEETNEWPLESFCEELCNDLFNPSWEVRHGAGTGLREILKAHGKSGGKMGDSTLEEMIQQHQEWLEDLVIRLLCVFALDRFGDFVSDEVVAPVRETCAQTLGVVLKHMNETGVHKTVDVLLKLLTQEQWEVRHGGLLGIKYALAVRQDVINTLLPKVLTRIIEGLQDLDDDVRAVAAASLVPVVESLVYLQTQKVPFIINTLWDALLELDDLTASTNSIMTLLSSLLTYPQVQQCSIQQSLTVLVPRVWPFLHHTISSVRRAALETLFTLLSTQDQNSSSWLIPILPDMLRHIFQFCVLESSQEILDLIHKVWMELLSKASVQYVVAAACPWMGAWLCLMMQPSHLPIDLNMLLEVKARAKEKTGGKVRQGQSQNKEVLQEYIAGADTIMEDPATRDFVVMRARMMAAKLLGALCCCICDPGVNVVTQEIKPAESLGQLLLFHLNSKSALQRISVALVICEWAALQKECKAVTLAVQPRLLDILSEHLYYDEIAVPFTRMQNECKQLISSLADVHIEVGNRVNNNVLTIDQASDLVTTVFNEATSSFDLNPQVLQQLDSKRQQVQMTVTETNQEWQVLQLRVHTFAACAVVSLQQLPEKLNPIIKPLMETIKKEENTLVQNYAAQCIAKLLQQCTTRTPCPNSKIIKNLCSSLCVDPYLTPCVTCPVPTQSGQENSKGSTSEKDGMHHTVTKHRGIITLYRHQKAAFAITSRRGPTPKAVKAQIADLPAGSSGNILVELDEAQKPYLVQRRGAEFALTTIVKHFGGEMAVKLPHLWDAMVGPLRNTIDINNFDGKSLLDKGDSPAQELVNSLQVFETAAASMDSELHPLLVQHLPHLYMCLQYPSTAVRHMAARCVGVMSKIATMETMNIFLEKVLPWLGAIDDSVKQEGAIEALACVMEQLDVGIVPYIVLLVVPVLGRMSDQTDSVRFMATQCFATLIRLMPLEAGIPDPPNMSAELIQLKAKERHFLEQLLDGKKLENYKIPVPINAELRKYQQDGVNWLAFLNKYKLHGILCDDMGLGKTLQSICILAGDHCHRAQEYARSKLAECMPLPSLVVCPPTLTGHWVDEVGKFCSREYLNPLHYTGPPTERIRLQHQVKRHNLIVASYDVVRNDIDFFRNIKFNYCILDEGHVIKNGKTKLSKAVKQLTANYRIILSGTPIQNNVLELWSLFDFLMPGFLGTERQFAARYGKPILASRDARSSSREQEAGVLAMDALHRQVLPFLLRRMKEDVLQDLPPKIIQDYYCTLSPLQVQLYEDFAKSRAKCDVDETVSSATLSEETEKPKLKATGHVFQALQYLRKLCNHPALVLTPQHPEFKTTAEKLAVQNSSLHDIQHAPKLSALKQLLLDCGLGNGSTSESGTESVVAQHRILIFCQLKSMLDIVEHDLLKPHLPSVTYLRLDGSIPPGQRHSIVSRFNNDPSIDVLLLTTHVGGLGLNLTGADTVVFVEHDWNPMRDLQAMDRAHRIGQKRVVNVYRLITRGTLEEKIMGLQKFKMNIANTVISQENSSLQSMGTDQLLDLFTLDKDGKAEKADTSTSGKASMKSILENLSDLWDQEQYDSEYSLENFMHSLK
UniProt P35219: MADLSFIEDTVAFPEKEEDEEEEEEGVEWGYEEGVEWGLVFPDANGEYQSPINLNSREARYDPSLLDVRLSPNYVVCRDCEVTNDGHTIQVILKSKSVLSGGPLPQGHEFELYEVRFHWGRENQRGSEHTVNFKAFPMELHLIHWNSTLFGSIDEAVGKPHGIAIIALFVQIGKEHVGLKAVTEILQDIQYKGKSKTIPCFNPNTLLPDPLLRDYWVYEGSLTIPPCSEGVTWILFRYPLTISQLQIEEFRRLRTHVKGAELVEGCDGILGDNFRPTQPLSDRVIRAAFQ
UniProt Q6P1S2: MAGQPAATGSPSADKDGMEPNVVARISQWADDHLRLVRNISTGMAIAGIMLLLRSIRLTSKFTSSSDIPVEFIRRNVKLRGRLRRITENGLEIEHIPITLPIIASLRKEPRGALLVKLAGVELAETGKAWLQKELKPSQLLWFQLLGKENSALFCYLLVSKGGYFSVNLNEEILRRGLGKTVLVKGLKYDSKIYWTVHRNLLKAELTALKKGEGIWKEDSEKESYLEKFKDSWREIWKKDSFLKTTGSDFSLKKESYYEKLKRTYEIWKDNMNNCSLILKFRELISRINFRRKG
UniProt Q8N999, whole entry, looked up: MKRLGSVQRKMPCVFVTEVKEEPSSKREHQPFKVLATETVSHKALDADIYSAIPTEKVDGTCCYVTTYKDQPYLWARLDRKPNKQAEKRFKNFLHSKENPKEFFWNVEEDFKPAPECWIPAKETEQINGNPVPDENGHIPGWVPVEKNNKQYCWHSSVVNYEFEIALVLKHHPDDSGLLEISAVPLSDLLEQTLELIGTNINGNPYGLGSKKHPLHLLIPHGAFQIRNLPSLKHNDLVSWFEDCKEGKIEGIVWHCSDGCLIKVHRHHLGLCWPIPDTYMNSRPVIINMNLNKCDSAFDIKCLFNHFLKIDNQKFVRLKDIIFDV
UniProt Q96K31: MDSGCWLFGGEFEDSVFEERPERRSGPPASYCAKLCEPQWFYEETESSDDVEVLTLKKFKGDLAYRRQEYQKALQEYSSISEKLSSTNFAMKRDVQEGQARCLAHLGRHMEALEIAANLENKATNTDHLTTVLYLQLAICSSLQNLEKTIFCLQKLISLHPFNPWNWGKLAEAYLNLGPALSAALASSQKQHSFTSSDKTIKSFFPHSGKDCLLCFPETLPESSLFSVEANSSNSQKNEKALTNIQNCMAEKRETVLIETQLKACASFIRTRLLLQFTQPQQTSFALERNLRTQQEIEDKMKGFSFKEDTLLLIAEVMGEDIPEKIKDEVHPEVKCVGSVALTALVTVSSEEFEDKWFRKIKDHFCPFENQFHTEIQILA
UniProt Q8WVQ1: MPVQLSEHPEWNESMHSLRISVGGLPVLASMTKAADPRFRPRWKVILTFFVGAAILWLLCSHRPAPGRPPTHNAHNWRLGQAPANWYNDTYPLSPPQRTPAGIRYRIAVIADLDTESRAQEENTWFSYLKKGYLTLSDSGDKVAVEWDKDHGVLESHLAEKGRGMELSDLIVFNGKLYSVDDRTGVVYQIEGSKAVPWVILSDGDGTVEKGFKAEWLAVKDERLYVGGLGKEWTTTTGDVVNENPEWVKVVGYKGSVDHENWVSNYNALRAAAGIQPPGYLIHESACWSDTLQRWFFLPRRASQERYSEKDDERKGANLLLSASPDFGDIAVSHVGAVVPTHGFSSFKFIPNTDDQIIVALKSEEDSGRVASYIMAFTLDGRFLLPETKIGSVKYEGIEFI
UniProt O43684, whole entry, looked up: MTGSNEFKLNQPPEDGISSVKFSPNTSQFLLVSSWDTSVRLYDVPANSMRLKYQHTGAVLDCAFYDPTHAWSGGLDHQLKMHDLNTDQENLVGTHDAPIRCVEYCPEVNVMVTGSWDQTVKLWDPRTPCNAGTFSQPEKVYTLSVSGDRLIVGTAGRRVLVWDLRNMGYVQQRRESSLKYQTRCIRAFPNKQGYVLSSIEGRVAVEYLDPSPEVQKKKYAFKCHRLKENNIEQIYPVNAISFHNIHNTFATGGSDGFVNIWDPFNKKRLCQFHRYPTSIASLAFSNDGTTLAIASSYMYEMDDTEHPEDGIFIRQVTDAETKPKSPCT
UniProt P41223: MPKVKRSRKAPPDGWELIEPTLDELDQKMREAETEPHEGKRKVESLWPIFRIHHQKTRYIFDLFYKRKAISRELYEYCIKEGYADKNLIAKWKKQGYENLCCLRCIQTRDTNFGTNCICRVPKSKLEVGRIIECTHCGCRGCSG
UniProt O60566, whole entry, looked up: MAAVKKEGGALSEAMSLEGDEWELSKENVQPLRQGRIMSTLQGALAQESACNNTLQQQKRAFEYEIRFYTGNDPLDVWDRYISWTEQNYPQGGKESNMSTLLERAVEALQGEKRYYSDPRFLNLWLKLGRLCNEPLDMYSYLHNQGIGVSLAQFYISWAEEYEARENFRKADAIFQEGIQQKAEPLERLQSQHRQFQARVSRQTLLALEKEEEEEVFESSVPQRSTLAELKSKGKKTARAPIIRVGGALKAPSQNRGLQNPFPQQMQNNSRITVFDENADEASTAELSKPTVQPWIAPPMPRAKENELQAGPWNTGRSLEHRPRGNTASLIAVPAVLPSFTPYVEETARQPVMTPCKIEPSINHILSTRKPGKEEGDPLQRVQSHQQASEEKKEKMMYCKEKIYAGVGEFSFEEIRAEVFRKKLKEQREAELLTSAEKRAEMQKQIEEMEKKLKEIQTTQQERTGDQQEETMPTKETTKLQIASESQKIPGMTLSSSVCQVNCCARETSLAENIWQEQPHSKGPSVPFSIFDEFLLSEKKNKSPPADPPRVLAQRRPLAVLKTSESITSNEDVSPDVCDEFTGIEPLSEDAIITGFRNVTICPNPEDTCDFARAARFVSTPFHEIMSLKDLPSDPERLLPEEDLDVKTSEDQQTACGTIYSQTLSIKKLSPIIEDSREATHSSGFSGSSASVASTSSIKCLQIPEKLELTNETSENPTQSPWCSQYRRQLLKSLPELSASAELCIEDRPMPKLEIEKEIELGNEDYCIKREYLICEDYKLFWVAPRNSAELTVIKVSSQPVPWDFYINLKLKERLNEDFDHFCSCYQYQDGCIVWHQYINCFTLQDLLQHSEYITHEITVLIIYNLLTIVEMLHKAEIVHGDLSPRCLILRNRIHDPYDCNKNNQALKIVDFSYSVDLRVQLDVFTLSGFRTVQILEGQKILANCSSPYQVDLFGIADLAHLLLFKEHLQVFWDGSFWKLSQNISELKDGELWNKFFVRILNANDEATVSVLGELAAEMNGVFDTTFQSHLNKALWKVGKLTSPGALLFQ
UniProt Q9Y2V2: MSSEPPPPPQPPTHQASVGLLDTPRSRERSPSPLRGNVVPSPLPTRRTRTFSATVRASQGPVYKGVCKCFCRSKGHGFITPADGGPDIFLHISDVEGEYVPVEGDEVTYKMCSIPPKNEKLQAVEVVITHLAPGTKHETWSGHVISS
UniProt Q8N1A6: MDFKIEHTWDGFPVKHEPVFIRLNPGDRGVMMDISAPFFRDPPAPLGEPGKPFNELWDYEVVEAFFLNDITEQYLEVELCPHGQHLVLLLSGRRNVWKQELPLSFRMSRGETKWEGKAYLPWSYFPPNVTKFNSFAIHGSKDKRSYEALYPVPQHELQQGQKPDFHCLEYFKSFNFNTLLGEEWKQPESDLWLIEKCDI

How the values were obtained:
Experiment in all cases: log2 fold change, soluble protein after heating vs DMSO (PISA); higher = thermal stabilisation; K562 cells, 10 uM, 30 min; active = over 0.2 and 3.5 SD of the protein, either way, in both replicates (recomputed)
bafetinib = compound: Cc1ccc(NC(=O)c2ccc(CN3CC[C@H](N(C)C)C3)c(C(F)(F)F)c2)cc1Nc1nccc(-c2cncnc2)n1 [bafetinib]
Summary of the method: (§1)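 K562 cells at 2×10^6 cells/mL were treated with 10 μM compound for 30 min. Aliquots were heated for 3 min across 48°C-58°C, pooled, and extracted in PBS with 0.5% NP-40 at 4°C; soluble protein was the supernatant after 21,000xg for 90 min. Soluble protein was quantified by TMTpro 16plex LC-MS/MS with channel sums equalised, and reported as log2 fold change in thermal stability against DMSO controls, with values from duplicates.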

[1] = compound: Cc1cccc(CC(=O)N2CCc3c2ccc(-c2cn(C)c4ncnc(N)c24)c3F)n1
Summary of the method: as §1

nilotinib = compound: Cc1cn(-c2cc(NC(=O)c3ccc(C)c(Nc4nccc(-c5cccnc5)n4)c3)cc(C(F)(F)F)c2)cn1 [nilotinib]
Summary of the method: as §1

[2] = compound: Cc1nc(Nc2n[nH]c3c2CN(C(=O)N[C@H](CN(C)C)c2ccccc2)C3(C)C)c2sccc2n1
Summary of the method: as §1

dasatinib = compound: Cc1nc(Nc2ncc(C(=O)Nc3c(C)cccc3Cl)s2)cc(N2CCN(CCO)CC2)n1 [dasatinib]
Summary of the method: as §1

[3] = compound: Cc1ncc(-c2ccnc(Nc3ccc(S(C)(=O)=O)cc3)n2)n1C(C)C
Summary of the method: as §1

[4] = compound: Cn1cc(-c2ccc3c(c2)CCN3C(=O)Cc2cccc(C(F)(F)F)c2)c2c(N)ncnc21
Summary of the method: as §1

[5] = compound: Cn1cc(-c2ccc3nnc(C(F)(F)c4ccc5ncccc5c4)n3n2)cn1
Summary of the method: as §1

tipifarnib = compound: Cn1cncc1[C@@](N)(c1ccc(Cl)cc1)c1ccc2c(c1)c(-c1cccc(Cl)c1)cc(=O)n2C [tipifarnib]
Summary of the method: as §1

mubritinib = compound: FC(F)(F)c1ccc(/C=C/c2nc(COc3ccc(CCCCn4ccnn4)cc3)co2)cc1 [mubritinib]
Summary of the method: as §1

[6] = compound: NC(=O)Nc1cc(-c2cccc(F)c2)sc1C(=O)N[C@H]1CCCNC1
Summary of the method: as §1

[7] = compound: NC(=O)c1cnc(N[C@@H]2CCCC[C@@H]2N)nc1Nc1cccc(-n2nccn2)c1
Summary of the method: as §1

[8] = compound: NC1(c2ccc(-c3nc4ccn5c(=O)[nH]nc5c4cc3-c3ccccc3)cc2)CCC1
Summary of the method: as §1

[9] = compound: NCC(=O)Nc1ccc(-n2nc(C(F)(F)F)cc2-c2ccc3c(ccc4ccccc43)c2)cc1
Summary of the method: as §1

entinostat = compound: Nc1ccccc1NC(=O)c1ccc(CNC(=O)OCc2cccnc2)cc1 [entinostat]
Summary of the method: as §1

vorinostat = compound: O=C(CCCCCCC(=O)Nc1ccccc1)NO [vorinostat]
Summary of the method: as §1

citarinostat = compound: O=C(CCCCCCNC(=O)c1cnc(N(c2ccccc2)c2ccccc2Cl)nc1)NO [citarinostat]
Summary of the method: as §1

silmitasertib = compound: O=C(O)c1ccc2c(c1)nc(Nc1cccc(Cl)c1)c1ccncc12 [silmitasertib]
Summary of the method: as §1

[10] = compound: O=C1NC(=O)C(c2cnc3ccccn23)=C1c1cn2c3c(cc(F)cc13)CN(C(=O)N1CCCCC1)CC2
Summary of the method: as §1

[11] = compound: c1cc(OCCN2CCCCC2)cc(-c2n[nH]c3ccc(-c4nnc[nH]4)cc23)c1
Summary of the method: as §1

Measured: log2 fold change

C18orf25 (UniProt Q96B23)
inactive: bafetinib -0.089 | [1] -0.059 | nilotinib -0.055 | [2] -0.045 | dasatinib 0.031 | [3] -0.049 | [4] 0.024 | [5] -0.059 | tipifarnib 0.02 | mubritinib 0.063 | [6] 0.036 | [7] 0.086 | [8] -0.015 | [9] 0.007 | entinostat -0.021 | vorinostat 0.007 | citarinostat 0.027 | silmitasertib -0.014 | [10] -0.091 | [11] 0.033

C6orf89 isoform 2 (UniProt Q6UWU4)
inactive: bafetinib -0.053 | [1] -0.086 | nilotinib 0.01 | [2] -0.027 | dasatinib -0.026 | [3] 0.033 | [4] 0.053 | [5] 0.007 | tipifarnib 0.072 | mubritinib 0.017 | [6] -0.056 | [7] -0.072 | [8] 0.016 | [9] -0.006 | entinostat -0.036 | vorinostat -0.017 | citarinostat 0.024 | silmitasertib 0.025 | [10] -0.021 | [11] -0.017

C5orf51 (UniProt A6NDU8)
inactive: bafetinib -0.044 | [1] 0.038 | nilotinib -0.139 | [2] -0.034 | dasatinib -0.02 | [3] -0.071 | [4] 0.026 | [5] -0.008 | tipifarnib -0.022 | mubritinib 0.03 | [6] -0.08 | [7] -0.036 | [8] -0.216 | [9] -0.031 | entinostat 0.064 | vorinostat 0.027 | citarinostat 0.105 | silmitasertib 0.026 | [10] 0.004 | [11] -0.066

BTAF1 (UniProt O14981)
inactive: bafetinib -0.158 | [1] 0.025 | nilotinib -0.004 | [2] -0.059 | dasatinib -0.131 | [3] 0.035 | [4] 0.04 | [5] -0.003 | tipifarnib -0.034 | mubritinib -0.022 | [6] -0.024 | [7] -0.012 | [8] -0.152 | [9] -0.104 | entinostat 0.012 | vorinostat 0.037 | citarinostat 0.038 | silmitasertib 0.036 | [10] -0.062 | [11] 0.079

CA8 (UniProt P35219)
inactive: bafetinib -0.042 | [1] 0.079 | nilotinib 0.006 | [2] -0.017 | dasatinib -0.187 | [3] -0.01 | [4] 0.083 | [5] -0.063 | tipifarnib -0.064 | mubritinib 0.06 | [6] 0.035 | [7] -0.069 | [8] -0.167 | [9] -0.058 | entinostat 0.049 | vorinostat 0.025 | citarinostat 0.108 | silmitasertib 0.029 | [10] -0.142 | [11] -0.027

C3orf33 (UniProt Q6P1S2)
inactive: bafetinib 0.207 | [1] -0.101 | nilotinib -0.005 | [2] 0.01 | dasatinib -0.039 | [3] -0.072 | [4] -0.034 | [5] -0.017 | tipifarnib 0.094 | mubritinib -0.057 | [6] 0.016 | [7] -0.09 | [8] 0.049 | [9] -0.092 | entinostat 0.069 | vorinostat -0.035 | citarinostat 0.055 | silmitasertib 0.048 | [10] -0.082 | [11] 0.026

C12orf29 (UniProt Q8N999)
inactive: bafetinib -0.024 | [1] 0.004 | nilotinib -0.051 | [2] 0.018 | dasatinib 0.09 | [3] 0.018 | [4] -0.034 | [5] 0.037 | tipifarnib 0.003 | mubritinib 0.019 | [6] -0.129 | [7] -0.077 | [8] -0.038 | [9] -0.055 | entinostat -0.034 | vorinostat -0.036 | citarinostat 0.055 | silmitasertib 0.037 | [10] -0.064 | [11] -0.039

C8orf76 (UniProt Q96K31)
inactive: bafetinib 0.01 | [1] 0 | nilotinib 0.016 | [2] 0.056 | dasatinib 0.026 | [3] 0.008 | [4] 0.025 | [5] -0.042 | tipifarnib 0.054 | mubritinib 0.012 | [6] 0.148 | [7] 0.019 | [8] 0.062 | [9] 0.01 | entinostat -0.024 | vorinostat 0.061 | citarinostat -0.105 | silmitasertib -0.068 | [10] -0.06 | [11] 0.056

CANT1 (UniProt Q8WVQ1)
inactive: bafetinib -0.068 | [1] 0.016 | nilotinib -0.023 | [2] 0.007 | dasatinib -0.005 | [3] 0.07 | [4] 0.022 | [5] 0.007 | tipifarnib -0.008 | mubritinib -0.034 | [6] -0.034 | [7] -0.023 | [8] -0.048 | [9] -0.004 | entinostat 0.033 | vorinostat 0.008 | citarinostat 0 | silmitasertib 0.031 | [10] -0.043 | [11] 0.059

C1orf52 (UniProt Q8N6N3)
inactive: bafetinib -0.053 | [1] -0.022 | nilotinib 0.001 | [2] -0.008 | dasatinib 0.015 | [3] 0.019 | [4] -0.019 | [5] -0.017 | tipifarnib -0.083 | mubritinib -0.006 | [6] 0.051 | [7] -0.032 | [8] 0.046 | [9] 0.022 | entinostat 0.001 | vorinostat -0.079 | citarinostat 0.018 | silmitasertib 0.105 | [10] -0.02 | [11] 0.012

BUB3 (UniProt O43684)
inactive: bafetinib -0.019 | [1] -0.025 | nilotinib -0.012 | [2] 0.006 | dasatinib 0.023 | [3] 0.003 | [4] 0.005 | [5] -0.009 | tipifarnib -0.034 | mubritinib 0.013 | [6] -0.008 | [7] -0.062 | [8] -0.02 | [9] -0.021 | entinostat -0.017 | vorinostat 0.01 | citarinostat 0.01 | silmitasertib -0.018 | [10] -0.002 | [11] 0.003

BUD31 (UniProt P41223)
inactive: bafetinib -0.102 | [1] 0.05 | nilotinib 0.013 | [2] 0.008 | dasatinib -0.026 | [3] 0.031 | [4] -0.002 | [5] -0.058 | tipifarnib -0.042 | mubritinib -0.02 | [6] -0.037 | [7] 0.067 | [8] 0.077 | [9] -0.034 | entinostat 0.022 | vorinostat -0.014 | citarinostat -0.025 | silmitasertib -0.05 | [10] -0.052 | [11] -0.054

CANX isoform 2 (UniProt P27824)
inactive: bafetinib -0.035 | [1] -0.029 | nilotinib 0.041 | [2] 0.032 | dasatinib 0.05 | [3] -0.025 | [4] -0.086 | [5] -0.011 | tipifarnib 0.074 | mubritinib -0.06 | [6] 0.089 | [7] -0.042 | [8] -0.013 | [9] 0.021 | entinostat 0.058 | vorinostat -0.046 | citarinostat 0.012 | silmitasertib 0.025 | [10] -0.014 | [11] -0.072

BUB1B isoform 3 (UniProt O60566)
inactive: bafetinib 0.03 | [1] 0.107 | nilotinib -0.089 | [2] -0.142 | dasatinib -0.13 | [3] 0.02 | [4] 0 | [5] 0.017 | tipifarnib -0.114 | mubritinib 0.012 | [6] 0 | [7] -0.135 | [8] -0.113 | [9] -0.039 | entinostat 0.068 | vorinostat 0.124 | citarinostat 0.02 | silmitasertib 0.111 | [10] 0.026 | [11] 0

CARHSP1 (UniProt Q9Y2V2)
inactive: bafetinib 0.07 | [1] 0.015 | nilotinib 0.127 | [2] -0.095 | dasatinib 0 | [3] 0.02 | [4] 0.061 | [5] 0.041 | tipifarnib -0.021 | mubritinib 0.216 | [6] -0.069 | [7] -0.127 | [8] -0.112 | [9] -0.009 | entinostat 0 | vorinostat 0 | citarinostat 0 | silmitasertib 0.035 | [10] 0.02 | [11] 0.001

C4orf33 (UniProt Q8N1A6)
inactive: bafetinib -0.143 | [1] 0.01 | nilotinib 0.03 | [2] -0.024 | dasatinib -0.002 | [3] -0.1 | [4] 0.056 | [5] 0.031 | tipifarnib -0.007 | mubritinib 0.054 | [6] 0.152 | [7] -0.003 | [8] -0.218 | [9] -0.061 | entinostat -0.156 | vorinostat -0.05 | citarinostat 0 | silmitasertib -0.126 | [10] 0.019 | [11] -0.063

Two neighbouring entries from above:
BUB1B isoform 3 (UniProt O60566)
inactive: bafetinib 0.03 | [1] 0.107 | nilotinib -0.089 | [2] -0.142 | dasatinib -0.13 | [3] 0.02 | [4] 0 | [5] 0.017 | tipifarnib -0.114 | mubritinib 0.012 | [6] 0 | [7] -0.135 | [8] -0.113 | [9] -0.039 | entinostat 0.068 | vorinostat 0.124 | citarinostat 0.02 | silmitasertib 0.111 | [10] 0.026 | [11] 0

CARHSP1 (UniProt Q9Y2V2)
inactive: bafetinib 0.07 | [1] 0.015 | nilotinib 0.127 | [2] -0.095 | dasatinib 0 | [3] 0.02 | [4] 0.061 | [5] 0.041 | tipifarnib -0.021 | mubritinib 0.216 | [6] -0.069 | [7] -0.127 | [8] -0.112 | [9] -0.009 | entinostat 0 | vorinostat 0 | citarinostat 0 | silmitasertib 0.035 | [10] 0.02 | [11] 0.001
